{"source": "PubChem BioAssay AID504804 (Drosophila RNAi Screening Center, 2011)", "aim": "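dsRNAs that improve Kc cell survival under doxorubicin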 (primary screen)", "system": "Drosophila Kc cells", "knock-down reagent": "long dsRNA against Drosophila genes, 0.5 µg dsRNA per well", "duration": "96 h (48 h knock-down, then 48 h drug)", "challenge": "doxorubicin 5 µg/ml for 48 h, added 48 h after dsRNA", "measured": "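Luminescent ATP counts per replicate, not normalised, reflecting viable cells after 48 h dsRNA knock-down followed by 48 h of 5 µg/ml doxorubicin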", "direction": "raw ATP luminescence: higher = more viable cells, protection from doxorubicin", "call rule": "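Active when both duplicate wells lie at least 2 SD above the plate mean and protection is confirmed by rescreening and independent dsRNAs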", "note": "The screen tested about 19,000 reagents; this is a random part of those with a known target gene and a result. Of all reagents, 47 (0.25%) got an active call. 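Signals are raw, not normalised; exact z-scores behind calls not deposited; actives needed confirmation, so some wells reaching 2 SD are inactive.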 The numbers tell different reagents against one gene apart. A plus sign joins genes that one reagent is predicted to hit."}
{"gene knocked down": "sncRNA:430e + His2A:CG33859 + His2A:CG33817 + 37 more", "reagent": 1, "raw ATP luminescence, replicate 1": 1.42e5, "raw ATP luminescence, replicate 2": 1.40e5, "call": "inactive"}
{"gene knocked down": "RpL34a", "reagent": 1, "raw ATP luminescence, replicate 1": 86510, "raw ATP luminescence, replicate 2": 66200, "call": "inactive"}
{"gene knocked down": "CG32188", "reagent": 1, "raw ATP luminescence, replicate 1": 65640, "raw ATP luminescence, replicate 2": 73090, "call": "inactive"}
{"gene knocked down": "CG17121", "reagent": 1, "raw ATP luminescence, replicate 1": 83120, "raw ATP luminescence, replicate 2": 87000, "call": "inactive"}
{"gene knocked down": "CG9346", "reagent": 1, "raw ATP luminescence, replicate 1": 79260, "raw ATP luminescence, replicate 2": 61767, "call": "inactive"}
{"gene knocked down": "CG5478", "reagent": 1, "raw ATP luminescence, replicate 1": 65690, "raw ATP luminescence, replicate 2": 70800, "call": "inactive"}
{"gene knocked down": "Papss", "reagent": 1, "raw ATP luminescence, replicate 1": 25303, "raw ATP luminescence, replicate 2": 21080, "call": "inactive"}
{"gene knocked down": "P5CS", "reagent": 1, "raw ATP luminescence, replicate 1": 24880, "raw ATP luminescence, replicate 2": 18737, "call": "inactive"}
{"gene knocked down": "P5CS", "reagent": 2, "raw ATP luminescence, replicate 1": 66007, "raw ATP luminescence, replicate 2": 55667, "call": "inactive"}
{"gene knocked down": "CAH8", "reagent": 1, "raw ATP luminescence, replicate 1": 82400, "raw ATP luminescence, replicate 2": 46600, "call": "inactive"}
{"gene knocked down": "Try29F", "reagent": 1, "raw ATP luminescence, replicate 1": 44610, "raw ATP luminescence, replicate 2": 51630, "call": "inactive"}
{"gene knocked down": "CG15014", "reagent": 1, "raw ATP luminescence, replicate 1": 64957, "raw ATP luminescence, replicate 2": 85147, "call": "inactive"}
{"gene knocked down": "CG6933", "reagent": 1, "raw ATP luminescence, replicate 1": 39747, "raw ATP luminescence, replicate 2": 19467, "call": "inactive"}
{"gene knocked down": "Lrch", "reagent": 1, "raw ATP luminescence, replicate 1": 81127, "raw ATP luminescence, replicate 2": 77787, "call": "inactive"}
{"gene knocked down": "Uba5", "reagent": 1, "raw ATP luminescence, replicate 1": 3.63e5, "raw ATP luminescence, replicate 2": 3.33e5, "call": "inactive"}
{"gene knocked down": "CG18599", "reagent": 1, "raw ATP luminescence, replicate 1": 66350, "raw ATP luminescence, replicate 2": 80310, "call": "inactive"}
{"gene knocked down": "byn", "reagent": 1, "raw ATP luminescence, replicate 1": 65503, "raw ATP luminescence, replicate 2": 64540, "call": "inactive"}
{"gene knocked down": "Thor", "reagent": 1, "raw ATP luminescence, replicate 1": 93990, "raw ATP luminescence, replicate 2": 62017, "call": "inactive"}
{"gene knocked down": "ng3", "reagent": 1, "raw ATP luminescence, replicate 1": 59840, "raw ATP luminescence, replicate 2": 73190, "call": "inactive"}
{"gene knocked down": "ems", "reagent": 1, "raw ATP luminescence, replicate 1": 73730, "raw ATP luminescence, replicate 2": 59560, "call": "inactive"}
{"gene knocked down": "alphaCOP", "reagent": 1, "raw ATP luminescence, replicate 1": 60260, "raw ATP luminescence, replicate 2": 51507, "call": "inactive"}
{"gene knocked down": "chic", "reagent": 1, "raw ATP luminescence, replicate 1": 35907, "raw ATP luminescence, replicate 2": 41143, "call": "inactive"}
{"gene knocked down": "Daxx", "reagent": 1, "raw ATP luminescence, replicate 1": 1.27e5, "raw ATP luminescence, replicate 2": 1.12e5, "call": "inactive"}
{"gene knocked down": "Tep1", "reagent": 1, "raw ATP luminescence, replicate 1": 50097, "raw ATP luminescence, replicate 2": 63060, "call": "inactive"}
{"gene knocked down": "CG4480", "reagent": 1, "raw ATP luminescence, replicate 1": 59563, "raw ATP luminescence, replicate 2": 54340, "call": "inactive"}
{"gene knocked down": "wtrw", "reagent": 1, "raw ATP luminescence, replicate 1": 33213, "raw ATP luminescence, replicate 2": 37827, "call": "inactive"}
{"gene knocked down": "wtrw", "reagent": 2, "raw ATP luminescence, replicate 1": 62533, "raw ATP luminescence, replicate 2": 55663, "call": "inactive"}
{"gene knocked down": "beta'COP", "reagent": 1, "raw ATP luminescence, replicate 1": 72077, "raw ATP luminescence, replicate 2": 82387, "call": "inactive"}

Reprinted from the listing, 3 entries:
{"gene knocked down": "Daxx", "reagent": 1, "raw ATP luminescence, replicate 1": 1.27e5, "raw ATP luminescence, replicate 2": 1.12e5, "call": "inactive"}
{"gene knocked down": "Tep1", "reagent": 1, "raw ATP luminescence, replicate 1": 50097, "raw ATP luminescence, replicate 2": 63060, "call": "inactive"}
{"gene knocked down": "CG4480", "reagent": 1, "raw ATP luminescence, replicate 1": 59563, "raw ATP luminescence, replicate 2": 54340, "call": "inactive"}
